Measurements as given in PMC7210777.
These are yes or no findings as the source states them, for the method shown. For part of these data: Binding calls can cover weak binding; strength is not graded here.

Assays:
Experiment in all cases: two-hybrid; CIPK proteins fused to the GAL4 BD (pGBKT7, strain Y187), CBL10 proteins fused to the GAL4 AD (pGADT7, strain Y2HGold); mated diploids, serial dilutions on SD-LW without histidine, 5 d; one orientation only
[1] = biological target: T1, AtCIPK18 (CBL-interacting protein kinase 18 of Arabidopsis) (Arabidopsis thaliana) (UniProt Q9LP51)
T1 sequence: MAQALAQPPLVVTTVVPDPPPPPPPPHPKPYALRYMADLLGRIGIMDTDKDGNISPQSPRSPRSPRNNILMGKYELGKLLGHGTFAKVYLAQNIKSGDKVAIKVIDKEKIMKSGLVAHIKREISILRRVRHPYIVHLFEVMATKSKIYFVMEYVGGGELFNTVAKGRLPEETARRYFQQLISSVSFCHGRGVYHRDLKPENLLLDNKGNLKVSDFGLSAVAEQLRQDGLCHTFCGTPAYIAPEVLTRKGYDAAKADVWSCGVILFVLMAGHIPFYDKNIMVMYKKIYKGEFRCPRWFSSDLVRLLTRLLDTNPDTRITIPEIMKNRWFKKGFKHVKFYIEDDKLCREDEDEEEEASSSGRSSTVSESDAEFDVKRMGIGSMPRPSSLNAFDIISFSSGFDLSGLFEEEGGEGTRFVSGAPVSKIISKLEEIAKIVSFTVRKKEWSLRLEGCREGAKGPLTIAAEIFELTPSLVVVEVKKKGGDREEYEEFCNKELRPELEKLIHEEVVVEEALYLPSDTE

[2] = biological target: T2, AtCIPK13 (CBL-interacting protein kinase 13 of Arabidopsis) (Arabidopsis thaliana) (UniProt O22971)
T2 sequence: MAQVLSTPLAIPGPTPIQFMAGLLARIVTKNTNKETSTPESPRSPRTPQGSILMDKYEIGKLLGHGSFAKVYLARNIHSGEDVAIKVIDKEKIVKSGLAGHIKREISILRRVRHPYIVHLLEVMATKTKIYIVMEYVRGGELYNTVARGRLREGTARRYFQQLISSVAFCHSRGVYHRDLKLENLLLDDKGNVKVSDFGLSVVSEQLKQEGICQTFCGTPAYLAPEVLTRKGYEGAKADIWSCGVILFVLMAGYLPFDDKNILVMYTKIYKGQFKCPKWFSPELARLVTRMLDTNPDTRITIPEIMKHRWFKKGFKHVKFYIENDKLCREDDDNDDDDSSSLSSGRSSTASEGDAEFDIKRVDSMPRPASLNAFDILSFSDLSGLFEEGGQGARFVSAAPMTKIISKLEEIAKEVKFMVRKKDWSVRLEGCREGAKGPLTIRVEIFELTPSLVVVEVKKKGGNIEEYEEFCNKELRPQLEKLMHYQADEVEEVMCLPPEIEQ

[3] = biological target: T3, AtCIPK16 (CBL-interacting protein kinase 16 of Arabidopsis) (Arabidopsis thaliana) (UniProt Q9SEZ7)
T3 sequence: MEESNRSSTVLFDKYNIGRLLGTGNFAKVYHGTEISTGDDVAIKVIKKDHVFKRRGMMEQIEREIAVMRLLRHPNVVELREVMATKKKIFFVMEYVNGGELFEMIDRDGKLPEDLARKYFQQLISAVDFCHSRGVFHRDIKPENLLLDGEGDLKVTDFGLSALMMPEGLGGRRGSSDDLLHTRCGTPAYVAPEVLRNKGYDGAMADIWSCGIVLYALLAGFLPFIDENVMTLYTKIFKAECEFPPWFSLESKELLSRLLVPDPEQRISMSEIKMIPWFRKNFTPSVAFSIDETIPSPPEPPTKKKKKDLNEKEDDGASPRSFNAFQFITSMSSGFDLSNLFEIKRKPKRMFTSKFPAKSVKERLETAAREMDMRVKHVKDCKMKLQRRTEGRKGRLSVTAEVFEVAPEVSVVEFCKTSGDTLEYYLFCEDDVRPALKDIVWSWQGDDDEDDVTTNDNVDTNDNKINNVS

[4] = biological target: T4, AtCIPK6 (CBL-interacting protein kinase 6 of Arabidopsis) (Arabidopsis thaliana) (UniProt O65554)
T4 sequence: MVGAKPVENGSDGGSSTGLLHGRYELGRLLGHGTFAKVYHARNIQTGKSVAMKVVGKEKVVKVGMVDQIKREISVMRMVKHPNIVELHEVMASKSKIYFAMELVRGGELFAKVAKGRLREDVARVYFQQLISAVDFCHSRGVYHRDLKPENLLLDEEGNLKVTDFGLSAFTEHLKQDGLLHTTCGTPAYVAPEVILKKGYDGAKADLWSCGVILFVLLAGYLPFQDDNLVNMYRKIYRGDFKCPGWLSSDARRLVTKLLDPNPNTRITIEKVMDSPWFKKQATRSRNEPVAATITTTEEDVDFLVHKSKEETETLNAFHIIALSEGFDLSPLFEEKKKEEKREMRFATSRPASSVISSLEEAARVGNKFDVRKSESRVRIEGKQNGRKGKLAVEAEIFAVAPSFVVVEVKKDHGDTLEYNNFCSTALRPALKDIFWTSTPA

binding [1]	binding [2]	binding [3]	binding [4]	Substance
binds				EsCBL10a (CALCINEURIN B-LIKE10a of Eutrema salsugineum)
binds	no binding	no binding	binds	SpCBL10b-1 (CALCINEURIN B-LIKE10b-1 of Schrenkiella parvula)
binds	no binding	no binding	no binding	SpCBL10b-2 (CALCINEURIN B-LIKE10b-2 of Schrenkiella parvula)
